Data taken from publication PMC6208484.
No constants are given. Whether binding was seen depends on the method and setting. In cells and extracts the contact can be indirect. Some entries that bind do so weakly or less than the wild type. Sequences can lack the tags named with a protein.

Target: Flag-RBM24 (RNA binding motif protein 24) (human) (UniProt Q9BX46)
Assay: co-IP; 293T cells co-transfected with pFlag-RBM24 and pHA-RBM24; lysates precipitated with anti-Flag, anti-HA or control IgG; blots with anti-HA and anti-[…]

binding: binds
B1: Flag-RBM24 (RNA binding motif protein 24) (protein, UniProt Q9BX46-1 1-236)
chain: MHTTQKDTTYTKIFVGGLPYHTTDASLRKYFEVFGEIEEAVVITDRQTGKSRGYGFVTMADRAAAERACKDPNPIIDGRKANVNLAYLGAKPRIMQPGFAFGVQQLHPALIQRPFGIPAHYVYPQAFVQPGVVIPHVQPTAAAASTTPYIDYTGAAYAQYSAAAAAAAAAAAYDQYPYAASPAAAGYVTAGGYGYAVQQPITAAAPGTAAAAAAAAAAAAAFGQYQPQQLQTDRMQ
